From PMC13423832
No constants are given. Whether binding was seen depends on the method and setting. In cells and extracts the contact can be indirect. Here binding means that the protein was enriched with, or labelled near, the bait; the list need not be complete.

The chains behind the UniProt entries cited, without tags or fusion partners. Where a name states a change or a piece, a line headed by the entry shows the natural chain unless it says otherwise.
UniProt P20674: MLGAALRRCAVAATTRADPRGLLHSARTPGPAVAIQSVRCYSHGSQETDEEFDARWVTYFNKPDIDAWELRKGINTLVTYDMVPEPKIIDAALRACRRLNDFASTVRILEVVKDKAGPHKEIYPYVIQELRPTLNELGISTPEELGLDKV

What was measured:
Assay in all cases: affinity purification with mass spectrometry; anti-FLAG resin on lysates (0.3% CHAPS, 20 mM HEPES) of HEK293T transiently overexpressing FLAG-tagged GFP, wild-type or mutant COX5A; 2 h, 4 °C; washes in 20 mM HEPES pH 7.40, 150 mM NaCl; elution in 8 M urea; LC-MS/MS
[1] = biological target: D81W-COX5A-FLAG (UniProt P20674)
[2] = biological target: COX5A-FLAG, wild type (UniProt P20674)
[3] = biological target: T79G-COX5A-FLAG (UniProt P20674)
[4] = biological target: Y80W-COX5A-FLAG (UniProt P20674)

Row | binding [1] | binding [2] | binding [3] | binding [4] | Binder
1 | binds | binds | binds | binds | PMPCA, alpha subunit of the mitochondrial-processing peptidase (enzyme, UniProt Q10713 34-525) SSGGAYPNIPLSSPLPGVPKPVFATVDGQEKFETKVTTLDNGLRVASQNKFGQFCTVGILINSGSRYEAKYLSGIAHFLEKLAFSSTARFDSKDEILLTLEKHGGICDCQTSRDTTMYAVSADSKGLDTVVALLADVVLQPRLTDEEVEMTRMAVQFELEDLNLRPDPEPLLTEMIHEAAYRENTVGLHRFCPTENVAKINREVLHSYLRNYYTPDRMVLAGVGVEHEHLVDCARKYLLGVQPAWGSAEAVDIDRSVAQYTGGIAKLERDMSNVSLGPTPIPELTHIMVGLESCSFLEEDFIPFAVLNMMMGGGGSFSAGGPGKGMFSRLYLNVLNRHHWMYNATSYHHSYEDTGLLCIHASADPRQVREMVEIITKEFILMGGTVDTVELERAKTQLTSMLMMNLESRPVIFEDVGRQVLATRSRKLPHELCTLIRNVKPEDVKRVASKMLRGKPAVAALGDLTDLPTYEHIQTALSSKDGRLPRTYRLFR
2 | binds | binds | binds | binds | PMPCB, beta subunit of the mitochondrial-processing peptidase (enzyme, UniProt O75439 44-489) STQAATQVVLNVPETRVTCLESGLRVASEDSGLSTCTVGLWIDAGSRYENEKNNGTAHFLEHMAFKGTKKRSQLDLELEIENMGAHLNAYTSREQTVYYAKAFSKDLPRAVEILADIIQNSTLGEAEIERERGVILREMQEVETNLQEVVFDYLHATAYQNTALGRTILGPTENIKSISRKDLVDYITTHYKGPRIVLAAAGGVSHDELLDLAKFHFGDSLCTHKGEIPALPPCKFTGSEIRVRDDKMPLAHLAIAVEAVGWAHPDTICLMVANTLIGNWDRSFGGGMNLSSKLAQLTCHGNLCHSFQSFNTSYTDTGLWGLYMVCESSTVADMLHVVQKEWMRLCTSVTESEVARARNLLKTNMLLQLDGSTPICEDIGRQMLCYNRRIPIPELEARIDAVNAETIREVCTKYIYNRSPAIAAVGPIKQLPDFKQIRSNMCWLRD
